Data taken from ChEMBL document CHEMBL3988442, “University of Dundee, Small-Polar-MMV Screening Library” (2021).

Protein sequences, listed by entry. Tags and fused reporters are not part of them. Residues count along the entry.
UniProt A4I591, 1-473: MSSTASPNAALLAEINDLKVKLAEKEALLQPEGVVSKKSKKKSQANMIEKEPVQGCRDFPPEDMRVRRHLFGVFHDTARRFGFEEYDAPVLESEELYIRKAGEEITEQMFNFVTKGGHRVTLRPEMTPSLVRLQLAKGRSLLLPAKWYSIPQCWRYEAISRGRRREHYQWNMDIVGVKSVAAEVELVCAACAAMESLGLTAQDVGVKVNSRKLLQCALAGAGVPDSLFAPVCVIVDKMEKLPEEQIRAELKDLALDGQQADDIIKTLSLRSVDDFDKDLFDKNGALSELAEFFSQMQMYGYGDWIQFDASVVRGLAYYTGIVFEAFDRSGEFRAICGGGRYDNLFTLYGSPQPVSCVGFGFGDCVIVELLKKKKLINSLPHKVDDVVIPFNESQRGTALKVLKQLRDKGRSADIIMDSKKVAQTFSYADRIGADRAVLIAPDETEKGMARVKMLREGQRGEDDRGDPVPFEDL
UniProt I6X8D2, whole entry: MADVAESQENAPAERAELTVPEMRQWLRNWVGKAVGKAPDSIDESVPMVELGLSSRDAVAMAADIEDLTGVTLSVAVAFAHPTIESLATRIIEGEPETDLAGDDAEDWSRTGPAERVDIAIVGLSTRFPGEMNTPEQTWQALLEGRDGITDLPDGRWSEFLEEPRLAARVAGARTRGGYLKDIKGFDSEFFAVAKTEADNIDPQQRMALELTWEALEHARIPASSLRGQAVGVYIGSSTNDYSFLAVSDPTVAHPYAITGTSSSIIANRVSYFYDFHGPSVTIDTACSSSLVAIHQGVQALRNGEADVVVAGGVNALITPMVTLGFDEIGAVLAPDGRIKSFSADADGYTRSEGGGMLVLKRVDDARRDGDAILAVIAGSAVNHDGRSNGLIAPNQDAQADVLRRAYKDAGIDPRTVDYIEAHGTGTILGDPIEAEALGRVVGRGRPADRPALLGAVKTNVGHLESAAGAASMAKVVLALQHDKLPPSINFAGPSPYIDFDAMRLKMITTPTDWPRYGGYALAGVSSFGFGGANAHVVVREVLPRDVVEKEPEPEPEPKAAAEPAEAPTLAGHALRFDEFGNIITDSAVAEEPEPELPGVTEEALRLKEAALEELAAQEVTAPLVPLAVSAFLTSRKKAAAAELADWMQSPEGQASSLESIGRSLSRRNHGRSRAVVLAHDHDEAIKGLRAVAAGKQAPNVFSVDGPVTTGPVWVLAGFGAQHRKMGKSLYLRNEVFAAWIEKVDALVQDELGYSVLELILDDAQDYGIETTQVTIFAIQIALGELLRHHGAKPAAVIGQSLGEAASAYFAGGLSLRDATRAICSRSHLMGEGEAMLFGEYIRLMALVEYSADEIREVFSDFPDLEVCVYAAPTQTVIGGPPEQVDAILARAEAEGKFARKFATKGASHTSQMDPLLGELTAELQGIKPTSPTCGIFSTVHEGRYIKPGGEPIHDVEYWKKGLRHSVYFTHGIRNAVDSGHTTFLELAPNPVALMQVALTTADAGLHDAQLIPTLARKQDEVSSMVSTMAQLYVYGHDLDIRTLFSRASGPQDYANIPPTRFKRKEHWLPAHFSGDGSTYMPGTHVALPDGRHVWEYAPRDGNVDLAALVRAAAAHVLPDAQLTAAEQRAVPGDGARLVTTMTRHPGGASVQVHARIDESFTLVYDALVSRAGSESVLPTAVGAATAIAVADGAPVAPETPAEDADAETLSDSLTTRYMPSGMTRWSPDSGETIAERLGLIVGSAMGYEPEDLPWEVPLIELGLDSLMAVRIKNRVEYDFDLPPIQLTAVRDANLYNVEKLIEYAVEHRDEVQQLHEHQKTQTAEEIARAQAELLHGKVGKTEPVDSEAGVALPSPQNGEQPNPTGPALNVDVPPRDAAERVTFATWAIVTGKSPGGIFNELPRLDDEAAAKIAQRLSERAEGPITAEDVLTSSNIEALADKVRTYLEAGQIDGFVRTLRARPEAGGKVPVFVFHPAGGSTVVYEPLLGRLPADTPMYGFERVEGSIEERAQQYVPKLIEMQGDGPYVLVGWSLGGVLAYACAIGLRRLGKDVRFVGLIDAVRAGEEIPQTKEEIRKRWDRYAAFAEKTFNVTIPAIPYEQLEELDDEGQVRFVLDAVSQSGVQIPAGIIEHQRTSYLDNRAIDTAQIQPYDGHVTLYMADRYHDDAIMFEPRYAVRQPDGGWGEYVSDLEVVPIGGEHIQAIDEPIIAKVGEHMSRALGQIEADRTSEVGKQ

The filed quantity is “Percent Effect” (%). The controls that fix the scale are not given in the record; negative values are as filed. This is an unselected part of the compounds tested.

A: 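Histidine-tRNA ligase, Leishmania infantum (UniProt A4I591). Enzyme assay of histidyl-tRNA synthetase; the read-out is not stated. Concentration: 30 µM. The record gives no direction; compounds that gave an IC50 in retests scored well above the rest, so higher reads as stronger inhibition. The assay is labelled LdHisRS but filed under L. infantum. Size under these conditions: about 69,000 compounds, about 410 of them at 50% or above in at least one test.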
B: 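Polyketide synthase Pks13, Mycobacterium tuberculosis (UniProt I6X8D2). Enzyme assay of the thioesterase domain of polyketide synthase 13; the read-out is not stated. Concentration: 30 µM. The record gives no direction; the compounds picked for IC50 retests had high values, so higher reads as stronger inhibition. Size under these conditions: about 67,000 compounds, about 300 of them at 50% or above in at least one test.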

Result for CCC1c2ccsc2CCN1C(=O)NCc1ccnc(N(C)C)c1 (configuration not stated) was A: 17.59%; B: -16.4%. Cc1nc(-c2cc(F)c3c(c2)CC(CN)O3)c[nH]1 (configuration not stated) gave A: 26.19%; B: -1.347%. Result for O=S(=O)(N1CCCCC1)N1CCc2nc(C3CCNCC3)ncc2C1 was A: 8.333%; B: -42.42%. With COc1cccc(C(=O)NC(c2ccccn2)[C@H]2CC[C@H](CN)CC2)c1 (some centres not stated) the screen gave A: 39.13%; B: -6.591%. For Cn1nc(C(=O)N2CCCCCC2)cc1NC(=O)c1ccccc1 the result was A: 11.9%; B: -4.251%. For Cc1nc(CCNC(=O)C2CC(=O)N(C(C)(C)C)C2)sc1C (configuration not stated) the result was A: 11.43%; B: -4.689%. With CCOc1ncccc1NC(=O)N1CCCC1c1cc(C)no1 (configuration not stated) the screen gave A: 12.9%; B: -21.13%.

Result for O=C(NCC1(O)CCSC1)c1ccoc1 (configuration not stated) was A: 12.5%; B: -25.73%. Result for CN1CCOC(C(=O)N2CCCC(C)(C)CC2)C1 (configuration not stated) was A: -0.5236%; B: -13.89%. CC/C=C(\C)CN1CCC(CNC(=O)c2ccc(=O)[nH]c2)CC1 read A: 24.29%; B: 2.107%. COCc1noc(-c2cc(Cl)c3c(c2)OCCCO3)n1 gave A: 3.614%; B: -2.794%. CN(Cc1ccc2c(c1)OCO2)C(=O)c1ccc(C2CCCO2)s1 (configuration not stated) gave A: 7.5%; B: -4.069%. For Cc1cc(C)n(C2CN(CC(=O)NCC(C)(C)N3CCOCC3)C2)n1 the result was A: 18.92%; B: -14.24%. Result for CN(C)C(=O)COc1ccccc1CN1CCCC2(C1)CN(C)C(=O)O2 (configuration not stated) was A: 10%; B: -12.57%.

c1cc(CN2CCc3ncc(CN4CCCCC4)n3CC2)cs1 gave A: 17.74%; B: -7.447%. With CNC(=O)CCc1cc(C2CCN(c3cnccn3)CC2)nc(C)n1 the screen gave A: 11.51%; B: 14.09%. Result for Cc1cnn(CC2CN(Cc3nc(C)c4ccccc4n3)CCO2)c1 (configuration not stated) was A: -0.885%; B: -4.352%. CN1CCN(c2cc(NC(=O)Cn3ccc4ccccc43)ncn2)CC1 gave A: 6.957%; B: -20.08%. CCCc1n[nH]cc1C(=O)NCC1COc2cc(OC)ccc2C1 (configuration not stated) gave A: -2.597%; B: -38.22%. Result for CS(=O)(=O)CCCSc1cccc(C#N)c1 was A: 8.163%; B: -15.16%. Cc1cc(C)c2nc(C)cc(C(=O)NC(C)c3nnn[nH]3)c2c1 (configuration not stated) read A: 4.301%; B: -5.859%.

Result for COC1CCN(c2ccc(NC(=O)C3CC3)cc2C(F)(F)F)CC1 was A: 24.29%. For CCC(=O)N(c1ccc(C(=O)OC)cc1C)C(C)C the result was A: 8.29%; B: -9.973%. With CS(=O)(=O)NCCC(=O)Nc1ccccc1N1CCc2ccccc21 the screen gave A: 24.73%; B: -9.168%. With COc1ccc(OCC2CCCN(Cc3ccncc3)C2)cc1 (configuration not stated) the screen gave A: 31.65%; B: -32.64%. With O=C(COCc1ccccc1Cl)Nc1ccnn1CC1CCOC1 (configuration not stated) the screen gave A: 4.878%; B: -3.606%. CC(C)CC(C)NC1CCN(c2ccc(-c3cscn3)cc2)CC1 (configuration not stated) read A: 10.64%; B: 9.891%. For Cc1cc(C)n(C2CN(CC(=O)N(C)Cc3ccco3)C2)n1 the result was A: 22.32%; B: 4.805%.

CN(C)C(=O)NCc1cc2n(n1)CCCN(C[C@H]1[C@@H]3CNC[C@@H]31)C2 read A: 13.6%; B: -2.207%. CC(NC(=O)CCn1cccn1)c1cccs1 (configuration not stated) read A: -1.613%; B: 3.337%. CCCC(=O)N(C)C(c1cccc(F)c1)c1ccccn1 (configuration not stated) gave A: 3.846%; B: -8.847%. CN(C1CCCC1)C(C)(C)C(=O)NCCS(C)(=O)=O read A: 15.38%; B: -5.23%. With COc1cccc(NC(=O)N2CC[C@@H]3CN(C)S(=O)(=O)[C@@H]3CC2)c1 the screen gave A: 15.38%; B: -2.756%. With O=c1ccc(-n2ccnc2)nn1CCNS(=O)(=O)c1ccccc1Cl the screen gave A: 12.17%; B: -29.93%. Result for COc1ccc2c(c1)CCCN2Cc1nc(C)c(C)o1 was A: 12.39%; B: -19.81%.

CN(C)CCN1CCCC12CCCN(Cc1ccco1)C2 (configuration not stated) read A: 10.53%; B: -26.38%. With CC(NC(=O)CNc1cc2c(cc1Cl)OCCO2)c1ccco1 (configuration not stated) the screen gave A: 15.04%; B: 3.353%. Result for CC(NC(=O)N1CCN(c2ccccc2)CC1)c1nncn1C (configuration not stated) was A: 17.57%; B: -9.45%. CNC(=O)c1c(C)cccc1NCC(=O)Nc1cc(C)nn1C gave A: 10%; B: -22.36%. Result for NC(=O)CN1CCCC(Cc2ccc(N)nn2)C1 (configuration not stated) was A: -5.263%; B: 15.66%. CCOCC(=O)N1Cc2nccn2CC(CN(C)C)C1 (configuration not stated) read A: 7.447%; B: -3.557%.